# Experimental data from the supplement of paper PMC10849652.
# Chains of the proteins cited; added tags and fusions are not shown. Lines headed by an entry give the natural chain unless they say otherwise; changes in a name come on top.
# UniProt Q9NQW7: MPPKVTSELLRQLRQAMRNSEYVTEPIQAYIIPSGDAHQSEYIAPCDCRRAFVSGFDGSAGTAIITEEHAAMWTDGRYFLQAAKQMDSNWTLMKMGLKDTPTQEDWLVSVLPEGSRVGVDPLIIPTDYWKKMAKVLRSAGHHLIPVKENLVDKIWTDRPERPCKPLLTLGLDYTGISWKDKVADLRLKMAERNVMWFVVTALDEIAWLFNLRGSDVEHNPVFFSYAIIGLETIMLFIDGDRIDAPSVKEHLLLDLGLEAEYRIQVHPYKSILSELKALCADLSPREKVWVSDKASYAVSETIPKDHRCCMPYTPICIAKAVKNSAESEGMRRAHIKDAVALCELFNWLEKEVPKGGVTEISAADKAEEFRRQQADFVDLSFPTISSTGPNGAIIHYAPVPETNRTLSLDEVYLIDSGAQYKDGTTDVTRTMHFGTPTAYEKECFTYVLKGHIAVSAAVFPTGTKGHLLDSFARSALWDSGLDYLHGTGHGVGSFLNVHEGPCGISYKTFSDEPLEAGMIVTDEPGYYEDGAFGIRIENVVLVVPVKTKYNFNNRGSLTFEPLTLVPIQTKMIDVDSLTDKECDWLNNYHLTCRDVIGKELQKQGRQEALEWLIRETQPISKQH
# UniProt Q96GY0: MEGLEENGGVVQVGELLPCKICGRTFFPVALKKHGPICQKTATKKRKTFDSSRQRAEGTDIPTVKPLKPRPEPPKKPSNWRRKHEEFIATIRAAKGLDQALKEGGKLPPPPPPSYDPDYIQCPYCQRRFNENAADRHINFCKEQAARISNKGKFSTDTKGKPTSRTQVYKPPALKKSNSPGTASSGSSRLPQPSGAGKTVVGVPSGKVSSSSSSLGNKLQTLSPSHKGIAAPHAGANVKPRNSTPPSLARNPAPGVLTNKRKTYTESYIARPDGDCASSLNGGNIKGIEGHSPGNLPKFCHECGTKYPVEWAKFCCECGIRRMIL
# UniProt Q5T200: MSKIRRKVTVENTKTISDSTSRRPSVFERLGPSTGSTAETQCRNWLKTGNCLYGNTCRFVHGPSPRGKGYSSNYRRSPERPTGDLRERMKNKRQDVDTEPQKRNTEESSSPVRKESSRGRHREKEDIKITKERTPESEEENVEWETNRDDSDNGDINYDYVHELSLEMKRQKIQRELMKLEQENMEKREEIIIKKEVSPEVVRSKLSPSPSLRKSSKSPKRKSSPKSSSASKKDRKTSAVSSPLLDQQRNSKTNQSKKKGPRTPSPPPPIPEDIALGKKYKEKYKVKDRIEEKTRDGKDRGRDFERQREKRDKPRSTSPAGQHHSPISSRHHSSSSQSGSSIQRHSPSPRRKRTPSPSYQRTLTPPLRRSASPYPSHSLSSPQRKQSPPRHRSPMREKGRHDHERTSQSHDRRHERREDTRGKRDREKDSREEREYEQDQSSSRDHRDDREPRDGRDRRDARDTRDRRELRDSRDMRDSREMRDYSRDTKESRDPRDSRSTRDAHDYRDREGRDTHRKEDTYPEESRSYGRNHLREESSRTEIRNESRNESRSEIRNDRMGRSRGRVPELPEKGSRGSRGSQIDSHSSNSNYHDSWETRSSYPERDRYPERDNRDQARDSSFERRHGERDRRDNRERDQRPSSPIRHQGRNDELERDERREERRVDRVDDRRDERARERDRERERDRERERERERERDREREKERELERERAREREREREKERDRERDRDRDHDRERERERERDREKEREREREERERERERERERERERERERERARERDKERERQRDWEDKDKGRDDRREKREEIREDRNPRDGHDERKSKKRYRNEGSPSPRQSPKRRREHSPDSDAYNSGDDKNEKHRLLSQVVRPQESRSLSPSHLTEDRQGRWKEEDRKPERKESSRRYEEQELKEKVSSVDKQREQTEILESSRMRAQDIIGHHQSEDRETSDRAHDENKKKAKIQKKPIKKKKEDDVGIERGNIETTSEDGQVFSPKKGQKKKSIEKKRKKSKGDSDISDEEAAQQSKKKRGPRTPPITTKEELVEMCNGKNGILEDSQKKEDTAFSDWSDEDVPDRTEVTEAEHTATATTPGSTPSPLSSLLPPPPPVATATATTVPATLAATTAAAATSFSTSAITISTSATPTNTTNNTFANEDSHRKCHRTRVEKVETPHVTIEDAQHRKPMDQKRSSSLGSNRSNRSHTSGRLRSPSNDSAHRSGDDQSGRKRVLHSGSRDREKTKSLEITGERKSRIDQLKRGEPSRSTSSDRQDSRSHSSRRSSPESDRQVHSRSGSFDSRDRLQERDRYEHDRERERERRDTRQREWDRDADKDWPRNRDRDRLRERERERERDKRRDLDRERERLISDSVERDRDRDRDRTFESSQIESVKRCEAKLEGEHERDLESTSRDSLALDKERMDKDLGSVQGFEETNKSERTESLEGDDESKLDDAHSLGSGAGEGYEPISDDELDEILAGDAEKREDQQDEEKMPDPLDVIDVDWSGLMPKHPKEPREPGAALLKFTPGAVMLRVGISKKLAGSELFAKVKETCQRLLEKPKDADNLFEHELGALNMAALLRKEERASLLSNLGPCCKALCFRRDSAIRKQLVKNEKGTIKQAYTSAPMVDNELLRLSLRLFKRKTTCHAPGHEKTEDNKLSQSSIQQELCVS
# UniProt O76080: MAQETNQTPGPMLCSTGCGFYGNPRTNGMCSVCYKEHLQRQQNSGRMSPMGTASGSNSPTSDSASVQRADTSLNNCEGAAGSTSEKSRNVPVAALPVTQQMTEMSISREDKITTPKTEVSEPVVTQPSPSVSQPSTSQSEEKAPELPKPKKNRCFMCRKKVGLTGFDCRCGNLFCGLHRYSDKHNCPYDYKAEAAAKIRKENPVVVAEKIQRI
# UniProt P52747: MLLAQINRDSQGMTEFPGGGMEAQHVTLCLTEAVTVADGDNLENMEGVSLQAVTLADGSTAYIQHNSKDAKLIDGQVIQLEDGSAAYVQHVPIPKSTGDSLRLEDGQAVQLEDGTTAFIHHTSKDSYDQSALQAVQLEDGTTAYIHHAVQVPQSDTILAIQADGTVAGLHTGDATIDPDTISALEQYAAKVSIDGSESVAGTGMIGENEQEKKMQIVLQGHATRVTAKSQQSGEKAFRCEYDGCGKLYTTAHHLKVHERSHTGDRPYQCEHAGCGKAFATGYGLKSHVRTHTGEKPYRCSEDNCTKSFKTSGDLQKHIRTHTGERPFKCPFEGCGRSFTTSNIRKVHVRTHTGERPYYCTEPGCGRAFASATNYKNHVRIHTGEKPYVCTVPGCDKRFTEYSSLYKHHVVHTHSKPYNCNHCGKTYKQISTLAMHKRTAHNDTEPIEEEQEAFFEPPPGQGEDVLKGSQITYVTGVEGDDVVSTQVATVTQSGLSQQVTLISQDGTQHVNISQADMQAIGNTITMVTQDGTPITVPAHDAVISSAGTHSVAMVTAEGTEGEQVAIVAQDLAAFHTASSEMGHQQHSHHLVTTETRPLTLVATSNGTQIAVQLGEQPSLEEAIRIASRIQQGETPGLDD
# UniProt Q16600: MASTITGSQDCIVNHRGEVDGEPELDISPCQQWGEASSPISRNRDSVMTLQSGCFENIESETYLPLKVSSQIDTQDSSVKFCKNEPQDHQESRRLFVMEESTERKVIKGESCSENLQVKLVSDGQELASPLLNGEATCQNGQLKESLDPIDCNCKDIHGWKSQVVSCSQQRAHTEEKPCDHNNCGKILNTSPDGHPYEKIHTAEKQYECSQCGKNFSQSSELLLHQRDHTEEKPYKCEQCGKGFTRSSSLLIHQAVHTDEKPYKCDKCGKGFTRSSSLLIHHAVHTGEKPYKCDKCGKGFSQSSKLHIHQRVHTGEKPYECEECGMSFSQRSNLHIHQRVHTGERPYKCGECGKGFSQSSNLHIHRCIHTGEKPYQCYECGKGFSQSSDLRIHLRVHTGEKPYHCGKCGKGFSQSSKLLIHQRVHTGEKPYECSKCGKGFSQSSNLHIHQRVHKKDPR
# UniProt Q9BQ24: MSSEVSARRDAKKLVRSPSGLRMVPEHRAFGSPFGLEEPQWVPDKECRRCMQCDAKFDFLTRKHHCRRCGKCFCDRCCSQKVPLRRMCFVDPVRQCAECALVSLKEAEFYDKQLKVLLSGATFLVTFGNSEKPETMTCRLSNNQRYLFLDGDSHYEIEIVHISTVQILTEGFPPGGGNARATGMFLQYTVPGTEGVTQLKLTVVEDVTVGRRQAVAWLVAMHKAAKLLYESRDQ
# UniProt Q96GR4: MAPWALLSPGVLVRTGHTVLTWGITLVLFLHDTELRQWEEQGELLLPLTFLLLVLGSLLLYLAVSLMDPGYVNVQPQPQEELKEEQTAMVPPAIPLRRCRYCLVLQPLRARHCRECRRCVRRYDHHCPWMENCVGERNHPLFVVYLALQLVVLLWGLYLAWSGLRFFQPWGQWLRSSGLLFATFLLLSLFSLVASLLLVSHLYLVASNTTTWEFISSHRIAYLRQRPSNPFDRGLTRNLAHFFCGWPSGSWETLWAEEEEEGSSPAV
# UniProt O75152: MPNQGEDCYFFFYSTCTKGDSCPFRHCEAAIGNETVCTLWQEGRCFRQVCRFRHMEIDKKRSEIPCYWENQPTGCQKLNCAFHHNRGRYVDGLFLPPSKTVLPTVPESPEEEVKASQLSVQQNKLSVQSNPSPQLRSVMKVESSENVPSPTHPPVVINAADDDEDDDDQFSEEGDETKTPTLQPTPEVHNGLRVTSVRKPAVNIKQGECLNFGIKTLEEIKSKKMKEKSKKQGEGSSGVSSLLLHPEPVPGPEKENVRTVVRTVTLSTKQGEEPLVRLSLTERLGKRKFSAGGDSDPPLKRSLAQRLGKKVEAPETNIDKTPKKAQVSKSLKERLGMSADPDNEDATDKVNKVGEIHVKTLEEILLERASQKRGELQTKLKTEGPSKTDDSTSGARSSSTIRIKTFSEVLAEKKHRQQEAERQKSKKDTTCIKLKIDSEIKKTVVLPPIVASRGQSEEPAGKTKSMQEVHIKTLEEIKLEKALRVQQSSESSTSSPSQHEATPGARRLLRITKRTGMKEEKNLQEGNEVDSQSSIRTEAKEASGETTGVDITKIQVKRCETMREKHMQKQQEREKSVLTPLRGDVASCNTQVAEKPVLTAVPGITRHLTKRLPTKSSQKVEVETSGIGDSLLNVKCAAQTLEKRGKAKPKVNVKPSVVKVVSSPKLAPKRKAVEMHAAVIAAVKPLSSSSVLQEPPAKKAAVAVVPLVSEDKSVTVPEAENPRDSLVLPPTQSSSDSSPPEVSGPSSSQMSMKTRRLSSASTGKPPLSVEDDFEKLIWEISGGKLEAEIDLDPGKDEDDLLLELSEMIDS
# UniProt Q8N5P1: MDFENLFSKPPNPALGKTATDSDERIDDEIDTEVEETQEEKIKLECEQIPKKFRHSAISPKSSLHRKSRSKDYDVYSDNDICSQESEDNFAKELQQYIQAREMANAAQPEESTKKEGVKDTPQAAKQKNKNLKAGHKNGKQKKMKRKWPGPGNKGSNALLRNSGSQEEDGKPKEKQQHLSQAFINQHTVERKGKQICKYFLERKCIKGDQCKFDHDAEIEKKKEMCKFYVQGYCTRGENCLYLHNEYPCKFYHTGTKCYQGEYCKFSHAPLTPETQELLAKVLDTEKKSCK
# UniProt O75362: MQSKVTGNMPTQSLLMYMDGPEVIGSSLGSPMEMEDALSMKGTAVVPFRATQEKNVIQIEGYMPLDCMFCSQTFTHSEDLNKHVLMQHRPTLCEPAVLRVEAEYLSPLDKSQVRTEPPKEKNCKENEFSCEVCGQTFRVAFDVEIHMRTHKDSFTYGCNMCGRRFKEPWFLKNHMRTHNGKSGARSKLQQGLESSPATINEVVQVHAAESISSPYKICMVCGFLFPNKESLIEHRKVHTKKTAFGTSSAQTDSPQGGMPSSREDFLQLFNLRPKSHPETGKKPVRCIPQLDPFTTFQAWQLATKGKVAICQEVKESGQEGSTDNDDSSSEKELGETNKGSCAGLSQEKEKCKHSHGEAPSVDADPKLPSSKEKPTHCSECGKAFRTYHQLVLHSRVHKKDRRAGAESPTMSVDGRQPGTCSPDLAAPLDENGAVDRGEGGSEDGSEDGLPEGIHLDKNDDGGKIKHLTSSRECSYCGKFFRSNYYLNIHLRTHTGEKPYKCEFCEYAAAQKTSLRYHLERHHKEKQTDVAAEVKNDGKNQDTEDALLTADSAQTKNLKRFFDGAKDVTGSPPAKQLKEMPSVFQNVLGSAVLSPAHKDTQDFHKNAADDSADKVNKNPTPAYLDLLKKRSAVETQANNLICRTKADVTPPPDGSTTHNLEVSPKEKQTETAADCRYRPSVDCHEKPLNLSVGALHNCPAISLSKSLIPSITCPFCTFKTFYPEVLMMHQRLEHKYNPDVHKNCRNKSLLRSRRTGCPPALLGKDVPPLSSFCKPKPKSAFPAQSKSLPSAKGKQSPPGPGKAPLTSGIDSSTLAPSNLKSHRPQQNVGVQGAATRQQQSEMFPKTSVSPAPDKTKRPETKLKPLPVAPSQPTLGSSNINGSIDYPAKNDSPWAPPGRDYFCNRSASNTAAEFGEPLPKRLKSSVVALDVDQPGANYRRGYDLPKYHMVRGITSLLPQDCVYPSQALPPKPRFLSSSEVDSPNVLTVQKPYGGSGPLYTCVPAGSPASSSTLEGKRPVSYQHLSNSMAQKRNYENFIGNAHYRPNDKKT
# The list shows a part of the results.
# Legend:
# Assay in all cases: log2 fold change, soluble protein after heating vs DMSO (PISA); higher = thermal stabilisation; K562 cells, 10 uM, 30 min; active = over 0.2 and 3.5 SD of the protein, either way, in both replicates (recomputed)
# saracatinib = compound: CN1CCN(CCOc2cc(OC3CCOCC3)c3c(Nc4c(Cl)ccc5c4OCO5)ncnc3c2)CC1 [saracatinib]
# How it was run: (§1)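 K562 cells at 2×10^6 cells/mL were exposed to 10 μM compound for 30 min, then aliquots were heated for 3 min across 48°C-58°C, pooled, and extracted in PBS containing 0.5% NP-40 at 4°C. The supernatant after 21,000xg for 90 min was taken as soluble protein and measured by TMTpro 16plex LC-MS/MS with channel sums equalised. Thermal stability is reported relative to control samples, with values from duplicates. Fold changes are given on a log2 scale.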
# sotrastaurin = compound: CN1CCN(c2nc(C3=C(c4c[nH]c5ccccc45)C(=O)NC3=O)c3ccccc3n2)CC1 [sotrastaurin]
# How it was run: as §1
# Tubastatin A = compound: CN1CCc2c(c3ccccc3n2Cc2ccc(C(=O)NO)cc2)C1 [Tubastatin A]
# How it was run: as §1
# defactinib = compound: CNC(=O)c1ccc(Nc2ncc(C(F)(F)F)c(NCc3nccnc3N(C)S(C)(=O)=O)n2)cc1 [defactinib]
# How it was run: as §1
# rucaparib = compound: CNCc1ccc(-c2[nH]c3cc(F)cc4c3c2CCNC4=O)cc1 [rucaparib]
# How it was run: as §1
# [1] = compound: CNc1nc(-c2ccc3c(N)n[nH]c3c2)cc(N2C[C@@H](C(=O)NC3CCCCC3)CC[C@H]2C)n1
# How it was run: as §1
# encorafenib = compound: COC(=O)N[C@@H](C)CNc1nccc(-c2cn(C(C)C)nc2-c2cc(Cl)cc(NS(C)(=O)=O)c2F)n1 [encorafenib]
# How it was run: as §1
# [2] = compound: COC(=O)[C@H](CCSC)NC(=O)C1=C(C=C(C=C1)NC[C@H](CS)N)C2=CC=CC=C2
# How it was run: as §1
# [3] = compound: CNC(=O)C1=CC=CC=C1NC2=NC(=NC=C2Cl)NC3=C(C=C(C=C3)N4CCOCC4)OC
# How it was run: as §1
# alvocidib = compound: CN1CC[C@H](c2c(O)cc(O)c3c(=O)cc(-c4ccccc4Cl)oc23)[C@H](O)C1 [alvocidib]
# How it was run: as §1
Target,log2 fold change (saracatinib),log2 fold change (sotrastaurin),log2 fold change (Tubastatin A),log2 fold change (defactinib),log2 fold change (rucaparib),log2 fold change [1],log2 fold change (encorafenib),log2 fold change [2],log2 fold change [3],log2 fold change (alvocidib)
ZKSCAN8 (UniProt Q15776),inactive: -0.382,inactive: -0.14,inactive: 0.107,inactive: -0.242,inactive: 0.196,inactive: 0.067,inactive: 0.117,inactive: 0.009,,
XPNPEP1 isoform 3 (UniProt Q9NQW7),inactive: 0.002,inactive: -0.005,inactive: -0.125,inactive: -0.07,inactive: -0.033,inactive: -0.012,inactive: -0.008,active: 0.352,inactive: -0.027,
XRN1 (UniProt Q8IZH2),inactive: -0.092,,inactive: 0.009,inactive: 0.152,inactive: 0.614,inactive: 0.063,inactive: 0.355,inactive: -0.157,,inactive: 0.184
ZFPL1 (UniProt O95159),inactive: 0.016,inactive: 0.003,inactive: -0.025,inactive: -0.083,inactive: 0.021,inactive: -0.031,inactive: -0.026,inactive: -0.007,inactive: 0.061,
ZC2HC1A (UniProt Q96GY0),inactive: -0.099,,inactive: 0.156,inactive: 0.045,inactive: 0.081,inactive: 0.021,inactive: -0.045,inactive: 0.121,inactive: -0.034,inactive: 0.096
ZC3H13 (UniProt Q5T200),inactive: -0.428,,inactive: -0.095,inactive: 0.084,inactive: 0.129,inactive: -0.202,inactive: -0.374,inactive: 0.206,inactive: 0.08,inactive: 0.203
ZDHHC7 isoform 2 (UniProt Q9NXF8),inactive: 0.034,,inactive: -0.003,inactive: 0.001,inactive: -0.067,inactive: -0.03,inactive: -0.043,inactive: 0.019,inactive: -0.016,
ZFAND5 (UniProt O76080),inactive: 0.08,inactive: 0.11,active: 0.285,inactive: 0.085,inactive: -0.012,inactive: -0.072,inactive: -0.047,inactive: 0.1,inactive: -0.141,
YIF1A (UniProt O95070),inactive: 0.01,,inactive: -0.052,inactive: -0.31,,inactive: -0.125,,inactive: -0.021,inactive: 0.086,inactive: 0.044
ZER1 (UniProt Q7Z7L7),inactive: 0.013,inactive: 0.078,inactive: 0.048,inactive: 0.027,inactive: -0.271,inactive: -0.245,inactive: 0.01,inactive: 0.035,inactive: -0.164,
YES1 (UniProt P07947),active: -0.551,,inactive: 0.094,inactive: -0.199,inactive: 0.169,inactive: -0.037,inactive: 0.242,inactive: -0.006,active: -0.623,
ZNF143 (UniProt P52747),inactive: 0.094,inactive: -0.031,inactive: -0.031,inactive: -0.171,inactive: -0.008,inactive: -0.118,inactive: 0.014,inactive: 0.013,inactive: -0.084,
ZNF239 (UniProt Q16600),inactive: 0.052,inactive: 0.144,inactive: 0.091,inactive: -0.014,,inactive: -0.055,,inactive: 0.002,inactive: -0.055,
YY1 (UniProt P25490),inactive: 0.047,inactive: -0.092,inactive: -0.011,active: -0.299,inactive: -0.05,inactive: -0.08,inactive: 0.066,inactive: 0.014,inactive: -0.046,
ZFYVE21 isoform 2 (UniProt Q9BQ24),inactive: 0.11,,inactive: 0.047,inactive: 0.05,inactive: -0.066,inactive: 0.348,inactive: 0.075,inactive: 0.156,inactive: -0.13,
ZDHHC12 isoform 3 (UniProt Q96GR4),inactive: 0.378,,inactive: 0.099,inactive: 0.053,,inactive: -0.09,,inactive: 0.004,,

Target,log2 fold change (saracatinib),log2 fold change (sotrastaurin),log2 fold change (Tubastatin A),log2 fold change (defactinib),log2 fold change (rucaparib),log2 fold change [1],log2 fold change (encorafenib),log2 fold change [2],log2 fold change [3],log2 fold change (alvocidib)
ZDHHC5 (UniProt Q9C0B5),inactive: 0.034,inactive: -0.069,inactive: 0.051,inactive: -0.097,inactive: 0.086,inactive: 0.011,inactive: -0.028,inactive: 0.054,inactive: 0.006,
XP32 (UniProt Q5T750),inactive: -0.24,,,,inactive: -0.333,inactive: 0.369,inactive: -0.603,,,inactive: -0.144
ZC3H11A (UniProt O75152),inactive: -0.423,,,inactive: 0,inactive: 0.136,inactive: 0.182,inactive: 0.141,inactive: 0.067,,inactive: -0.028
ZBTB21 (UniProt Q9ULJ3),inactive: -0.149,inactive: 0.022,inactive: -0.132,inactive: -0.033,,inactive: -0.111,,inactive: -0.022,inactive: -0.012,
ZC3H8 (UniProt Q8N5P1),inactive: 0.088,inactive: 0.025,inactive: -0.034,inactive: 0.228,inactive: 0.19,inactive: 0.012,inactive: -0.01,inactive: -0.009,inactive: 0.019,
ZNF106 (UniProt Q9H2Y7),inactive: -0.03,inactive: -0.194,,inactive: -0.103,inactive: -0.052,inactive: 0.093,inactive: -0.046,inactive: -0.02,,
YIPF5 isoform 3 (UniProt Q969M3),inactive: 0.007,inactive: 0.034,inactive: -0.103,inactive: -0.019,inactive: 0,inactive: -0.115,inactive: 0.012,inactive: 0.046,inactive: 0.088,
ZMYND8 isoform 19 (UniProt Q9ULU4),inactive: -0.052,,,,inactive: -0.197,inactive: 0.019,inactive: 0.077,,inactive: -0.018,inactive: -0.185
ZNF217 (UniProt O75362),inactive: -0.083,inactive: -0.019,inactive: -0.086,inactive: -0.145,inactive: -0.025,inactive: -0.183,inactive: -0.054,inactive: -0.067,inactive: -0.029,
XPOT (UniProt O43592),inactive: 0.017,inactive: -0.102,inactive: 0.026,inactive: -0.022,inactive: 0.005,inactive: -0.116,inactive: 0.076,inactive: -0.044,inactive: 0.076,
ZBTB33 (UniProt Q86T24),inactive: -0.006,,,,inactive: -0.006,inactive: 0.048,inactive: -0.097,,,
XYLT2 (UniProt Q9H1B5),,,,,,,,,,inactive: -0.241
ZDHHC6 (UniProt Q9H6R6),,,,,inactive: 0.176,,inactive: 0.006,,,
ZKSCAN3 (UniProt Q9BRR0),,,,,,,,,,inactive: 0.149
ZCCHC9 (UniProt Q8N567),,inactive: 0.243,inactive: 0.103,inactive: 0.216,inactive: 0.4,,inactive: 0.002,inactive: 0.081,inactive: 0.058,
